Experimental findings from article PMC5584925 are described below.

The chains behind the UniProt entries cited, without tags or fusion partners.
UniProt Q14974: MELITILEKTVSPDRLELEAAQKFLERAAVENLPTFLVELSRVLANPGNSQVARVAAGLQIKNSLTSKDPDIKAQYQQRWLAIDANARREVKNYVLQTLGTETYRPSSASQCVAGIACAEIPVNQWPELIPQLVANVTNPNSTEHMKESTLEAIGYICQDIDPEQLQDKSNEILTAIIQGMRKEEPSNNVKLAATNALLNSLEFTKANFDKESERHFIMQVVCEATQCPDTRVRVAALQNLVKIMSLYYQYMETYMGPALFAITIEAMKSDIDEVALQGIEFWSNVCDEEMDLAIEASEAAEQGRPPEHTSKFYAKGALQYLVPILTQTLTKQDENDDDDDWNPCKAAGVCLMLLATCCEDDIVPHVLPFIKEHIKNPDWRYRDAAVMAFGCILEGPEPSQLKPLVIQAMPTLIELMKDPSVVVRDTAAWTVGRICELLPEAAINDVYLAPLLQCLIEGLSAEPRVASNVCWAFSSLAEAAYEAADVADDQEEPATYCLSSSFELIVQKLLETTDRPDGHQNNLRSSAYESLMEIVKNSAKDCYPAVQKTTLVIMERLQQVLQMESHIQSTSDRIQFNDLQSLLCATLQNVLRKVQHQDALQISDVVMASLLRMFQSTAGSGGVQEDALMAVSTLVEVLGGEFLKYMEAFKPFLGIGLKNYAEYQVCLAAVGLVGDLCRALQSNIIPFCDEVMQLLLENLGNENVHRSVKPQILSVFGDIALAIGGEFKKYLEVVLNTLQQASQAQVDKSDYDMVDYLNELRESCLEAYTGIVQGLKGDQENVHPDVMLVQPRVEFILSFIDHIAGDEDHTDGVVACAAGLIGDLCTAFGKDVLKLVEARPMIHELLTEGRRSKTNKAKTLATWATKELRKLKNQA
UniProt P12520: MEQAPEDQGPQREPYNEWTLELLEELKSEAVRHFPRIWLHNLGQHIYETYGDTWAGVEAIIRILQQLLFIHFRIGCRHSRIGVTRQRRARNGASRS

These are yes or no findings as the source states them, for the method shown. In cells and extracts the contact can be indirect. Some results given as binding are weak or reduced against the parent protein; the word gives no strength. For some of these results: Tags and fused reporters may be left off the sequences shown.

The target of assay [1] is HA-tagged GST-POM121C (614–987) (human) (UniProt A8CG34). The assay is described as follows: pull-down; lysates of HEK293 cells stably expressing HA-GST fusions (25 mM Tris-HCl pH 7.4, 150 mM NaCl, 1% NP40, 5% glycerol), Glutathione-Sepharose 4B for 2 h at 4°C, five washes, blots with anti-KPNB1 and anti-GST or anti-HA.
Assay [2] deals with HA-tagged GST-POM121C (801–987) (human) (UniProt A8CG34). The assay is described as above.
Assay [3] has as its target POM121C (human) (UniProt A8CG34). As to the kind of experiment: pull-down; GST pull-down, POM121C with Vpr; no data shown, no conditions told.
Assay [4] shares this target. As to the kind of experiment: co-IP; immunoprecipitation, POM121C with Vpr; no data shown, no conditions told.

Consider “Importin subunit beta-1 (KPNB1) (from UniProt Q14974 1-876)”, for which the binding result in assay [1] and in assay [2] was “binds” each time.

With Vpr (from UniProt P12520 1-96), the binding entry with POM121C (human) [3] and with POM121C (human) [4] was “no binding” throughout.
